Assay results: US20200031906A1
No constants are given. Whether binding was seen depends on the method and setting. In cells and extracts the contact can be indirect. Some binding calls cover weakened binding; strength is not graded here.

By UniProt entry, the sequences of proteins in these tests, tags left out. Where a name states a change or a piece, a line headed by the entry shows the natural chain unless it says otherwise.
UniProt P07478: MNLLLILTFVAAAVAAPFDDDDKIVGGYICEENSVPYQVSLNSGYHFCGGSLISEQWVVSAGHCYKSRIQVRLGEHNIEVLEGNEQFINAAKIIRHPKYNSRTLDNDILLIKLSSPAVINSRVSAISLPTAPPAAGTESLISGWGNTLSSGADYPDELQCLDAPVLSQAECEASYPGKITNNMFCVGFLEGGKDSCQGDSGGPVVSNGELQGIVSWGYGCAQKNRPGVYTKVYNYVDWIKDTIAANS

What was measured:
prosaposin (PSAP) [1] = molecular target: T1, prosaposin (PSAP) (UniProt P07602); assay: co-immunoprecipitation of LRP1 peptides with PSAP
T1 sequence (looked up): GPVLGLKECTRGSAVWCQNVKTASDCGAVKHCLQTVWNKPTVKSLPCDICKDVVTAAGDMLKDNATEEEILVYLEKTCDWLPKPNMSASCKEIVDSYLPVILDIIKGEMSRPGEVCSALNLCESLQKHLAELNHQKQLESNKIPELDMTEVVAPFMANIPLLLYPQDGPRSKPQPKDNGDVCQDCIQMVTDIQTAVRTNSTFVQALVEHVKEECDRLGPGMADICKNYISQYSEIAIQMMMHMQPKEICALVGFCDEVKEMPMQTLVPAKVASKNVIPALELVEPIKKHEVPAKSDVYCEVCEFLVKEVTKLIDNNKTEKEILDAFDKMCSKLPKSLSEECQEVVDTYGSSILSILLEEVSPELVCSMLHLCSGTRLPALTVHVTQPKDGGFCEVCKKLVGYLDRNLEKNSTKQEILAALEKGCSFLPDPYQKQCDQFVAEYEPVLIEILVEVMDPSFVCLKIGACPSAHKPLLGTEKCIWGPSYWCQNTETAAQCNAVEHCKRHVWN

[2] = molecular target: Protease, serine 2 (PRSS2) (Homo sapiens (Human)) (UniProt P07478); assay: co-immunoprecipitation of LRP1 peptides with PRSS2
[3] = molecular target: Protease, serine 2 (PRSS2) (Homo sapiens (Human)) (UniProt P07478); assay: co-immunoprecipitation (annotation in the peptide table)
prosaposin (PSAP) [4] = molecular target: T1, prosaposin (PSAP); assay: as above

Measured: binding

YGTCSQLCTNTDGSFICGCVEGYLL [Peptide 12 (amino acids 140-164 of LRP1)]
binds: all assays above

FICGCVEGYLLQPDNRSCKAKN [Peptide 13 (amino acids 151-172 of LRP1)]
binds: all assays above
